Measurements reported in patent publication US20220079895A1, “COMPOSITION FOR PREVENTING OR TREATING LIVER DISEASES” (AceBiomed, Inc., priority 2020, published 2022).
For at least one compound, name, drawing or mass did not settle the structure.

Legend:
collagen I = assay: expression of collagen I increased by TGF-β1 in hepatocytes AML12; assay type: cell-based, mouse; conditions: AML12 cells; 5 nM colchicine + 30 μg/ml DPP-4 inhibitor, TGF-β1 (5 ng/ml)
Protocol: (§1) Mouse hepatocytes, AML12 cells, were incubated at 37° C., 95% air and 5% CO2 in a DMEM/F12 medium containing 5 μg/ml insulin, 5 μg/ml transferrin, 5 ng/ml selenium, 40 ng/ml dexamethasone, 10% fetal bovine serum (FBS) and 1% penicillin/streptomycin. AML12 cells pre-treated with 5 nM of colchicine and 30 μg/ml of a dipeptidyl peptidase-4 (DPP-4) inhibitor were treated with TGF-β1 (5 ng/ml) or 0.2 mM of palmitate after 8 hours, and further incubated for additional 16 hours.
(§2) Total RNA was extracted using an RNeasy mini kit (Qiagen), and then synthesized into cDNA using a high-capacity cDNA reverse transcription kit (Thermo Fisher). The same amount of cDNA was amplified using a SYBR™ green PCR master mix and a 10 pM primer set for each gene. The amplification process was subjected to an initial denaturation process at 95° C. for 5 minutes, and repetitively replication at 95° C. for 10 seconds, 58.5° C. for 10 seconds, and 72° C. for 10 seconds for a total of 40 times.

SREBP1 = assay: expression of SREBP1 induced by palmitate in hepatocytes AML12; assay type: cell-based, mouse; conditions: AML12 cells; 5 nM colchicine + 30 μg/ml DPP-4 inhibitor, 0.2 mM palmitate
Protocol: as §1, §2

Row | Structure (SMILES) | additive interaction with colchicine in inhibiting the expression of collagen I (collagen I) | additive interaction with colchicine in inhibiting the expression of SREBP1 (SREBP1)
1 | N[C@@H](CC(=O)N1CCc2c(nc(C(F)(F)F)nc2C(F)(F)F)C1)CN1CC(F)(F)CCC1=O [gemigliptin] | slight additive interaction | –
2 | N#C[C@@H]1C[C@@H]2C[C@@H]2N1C(=O)[C@@H](N)C12CC3CC(CC(O)(C3)C1)C2 [saxagliptin] | excluding | –
3 | CC#CCn1c(N2CCC[C@@H](N)C2)nc2c1c(=O)n(Cc1nc(C)c3ccccc3n1)c(=O)n2C [linagliptin] | slight additive interaction | excluding
